No constants are given. Whether binding was seen depends on the method and setting. Binding seen in cells or lysates may run through a third protein. Binding calls can cover weak binding; strength is not graded here. One block for each molecule: values may come before it.
Key:
[1] = target: T1, MEKK2 (human (endogenous in HeLa)) (UniProt Q9Y2U5); test: pull-down; in vitro binding assay: MEKK2 immunoprecipitated from HeLa lysates (with or without EGF), washed, incubated overnight with 2 µg GST-Lad1 in 50 mM β-glycerophosphate, 100 mM NaCl, 1 mM DTT with various calcium concentrations; bound GST-Lad1 by anti Lad1 blot; binding weak without or at low calcium, elevated at 0.5–1 µM, reduced above 1 µM; both purified
T1 sequence: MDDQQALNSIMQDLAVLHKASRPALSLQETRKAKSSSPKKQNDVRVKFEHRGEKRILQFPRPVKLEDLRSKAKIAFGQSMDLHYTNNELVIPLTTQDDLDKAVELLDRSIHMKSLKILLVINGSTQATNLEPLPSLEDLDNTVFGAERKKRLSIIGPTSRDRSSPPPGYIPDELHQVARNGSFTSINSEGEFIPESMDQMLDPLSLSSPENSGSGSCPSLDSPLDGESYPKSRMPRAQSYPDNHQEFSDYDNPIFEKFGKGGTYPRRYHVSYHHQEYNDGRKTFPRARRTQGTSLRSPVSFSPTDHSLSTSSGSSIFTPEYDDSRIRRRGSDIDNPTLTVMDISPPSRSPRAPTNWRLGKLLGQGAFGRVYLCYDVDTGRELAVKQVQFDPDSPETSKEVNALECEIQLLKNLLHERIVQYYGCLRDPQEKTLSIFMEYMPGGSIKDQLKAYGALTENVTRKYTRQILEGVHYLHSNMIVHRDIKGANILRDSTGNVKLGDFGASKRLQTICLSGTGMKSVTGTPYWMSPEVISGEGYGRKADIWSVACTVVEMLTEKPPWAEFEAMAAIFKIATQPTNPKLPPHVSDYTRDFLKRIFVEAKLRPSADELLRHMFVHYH

Chains of the proteins cited; added tags and fusions are not shown. Lines headed by an entry give the natural chain unless they say otherwise; changes in a name come on top.
UniProt Q9QXK9: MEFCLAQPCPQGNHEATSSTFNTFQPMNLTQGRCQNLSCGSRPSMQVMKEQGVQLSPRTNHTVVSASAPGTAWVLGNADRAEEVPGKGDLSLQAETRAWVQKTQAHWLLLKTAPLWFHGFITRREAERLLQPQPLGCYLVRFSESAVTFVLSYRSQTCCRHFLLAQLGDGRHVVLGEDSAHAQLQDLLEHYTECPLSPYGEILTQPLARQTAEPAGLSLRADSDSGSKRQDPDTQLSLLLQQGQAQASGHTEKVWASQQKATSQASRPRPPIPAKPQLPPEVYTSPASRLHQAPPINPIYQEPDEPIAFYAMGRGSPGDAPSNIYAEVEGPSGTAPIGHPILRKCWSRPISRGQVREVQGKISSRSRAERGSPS

GFP-Lad1 (1–366) [2] = target: GFP-Lad1 (1–366) (UniProt Q9QXK9); test: co-IP; GFP-Lad1 transfected HeLa cells; anti GFP Ab precipitates, endogenous MEKK2 by anti MEKK2 blot; resting cells, EGF (20 ng/ml) time course, ionomycin (1 µM) pretreatment
GFP-Lad1 (1–366) [3] = target: GFP-Lad1 (1–366) (UniProt Q9QXK9); test: co-IP; as the GFP-Lad1 co-IP, cells pretreated with BAPTA-AM (15 µM, 15 min) before EGF

binding [1]: binds
Molecule: GST-Lad1 (from UniProt Q9QXK9-2)

binding (GFP-Lad1 (1–366) [2]): binds
binding (GFP-Lad1 (1–366) [3]): binds weakly
B1: MEKK2 (enzyme, UniProt Q9Y2U5 1-619)
chain: T1 sequence
